Experimental data as given in publication PMC8041276 (ACS Chemical Neuroscience, 2021).

System: HepG2 cells
Assay: MTT assay, hepatotoxicity in HepG2 cells
Assay type: cell-based
Conditions: Homo sapiens; HepG2, 24 h; printed in Figure 5A; read-out: IC50, cellular viability (MTT)
Description: Human hepatocellular carcinoma cells (HepG2) were cultured using standard procedures (protocol from ATCC). Cells were cultured in Eagle’s minimum essential medium (EMEM) in flasks with an area of 25 cm^2 (Falcon), supplemented with 10% of fetal bovine serum (FBS, Life Technologies) with the addition of 100 IU/mL penicillin (Sigma-Aldrich) and 100 μg/mL streptomycin (Sigma-Aldrich) and incubated at 37 °C in a humidified atmosphere with 5% CO2.
The MTT assay was used to determine the viability of HepG2 cells incubated in the presence of compound 27 and DOX. Cells were seeded at a density of 2 × 10^4 in 96-well plates. […] Following cell exposure to each compound 10 μL of MTT reagent (Sigma-Aldrich) was added to each well. After 4 h of incubation (37 °C, 5% CO2) the culture medium was aspirated and formazan crystals were dissolved in 100 μL of DMSO. Then, optical density (OD) at 570 nm was determined on a plate reader (Spectra Max iD3, Molecular Devices). Each individual experiment was repeated at least three times.

COc1cccc2c1C(=O)c1c(O)c3c(c(O)c1C2=O)C[C@@](O)(C(=O)CO)C[C@@H]3O[C@H]1C[C@H](N)[C@H](O)[C@H](C)O1 [DOX, Doxorubicin, reference compound]
IC50: 750 nM
